Sequences of proteins named here, by UniProt entry; tags and fusion partners are left off.
UniProt P28632: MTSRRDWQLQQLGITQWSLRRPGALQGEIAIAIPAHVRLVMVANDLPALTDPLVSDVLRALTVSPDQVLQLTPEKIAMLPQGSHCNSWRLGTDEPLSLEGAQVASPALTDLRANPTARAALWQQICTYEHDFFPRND
UniProt P0ACB0: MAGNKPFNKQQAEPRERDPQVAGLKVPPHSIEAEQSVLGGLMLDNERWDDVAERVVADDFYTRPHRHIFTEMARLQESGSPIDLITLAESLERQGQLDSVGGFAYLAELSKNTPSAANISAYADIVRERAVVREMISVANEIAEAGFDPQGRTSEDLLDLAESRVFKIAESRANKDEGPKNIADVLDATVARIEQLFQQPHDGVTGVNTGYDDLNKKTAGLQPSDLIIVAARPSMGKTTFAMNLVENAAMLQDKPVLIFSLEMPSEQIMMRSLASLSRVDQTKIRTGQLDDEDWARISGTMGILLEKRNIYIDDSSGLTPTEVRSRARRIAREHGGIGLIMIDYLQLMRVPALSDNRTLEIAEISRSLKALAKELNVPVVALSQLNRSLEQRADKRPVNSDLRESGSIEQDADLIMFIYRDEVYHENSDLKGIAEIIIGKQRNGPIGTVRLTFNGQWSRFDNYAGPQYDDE
UniProt P0AGE0: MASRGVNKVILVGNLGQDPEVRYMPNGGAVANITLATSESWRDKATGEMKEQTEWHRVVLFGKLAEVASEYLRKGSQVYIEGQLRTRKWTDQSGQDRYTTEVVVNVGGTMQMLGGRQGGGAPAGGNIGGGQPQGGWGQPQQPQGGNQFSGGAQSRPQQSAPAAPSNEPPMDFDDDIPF
UniProt P09980: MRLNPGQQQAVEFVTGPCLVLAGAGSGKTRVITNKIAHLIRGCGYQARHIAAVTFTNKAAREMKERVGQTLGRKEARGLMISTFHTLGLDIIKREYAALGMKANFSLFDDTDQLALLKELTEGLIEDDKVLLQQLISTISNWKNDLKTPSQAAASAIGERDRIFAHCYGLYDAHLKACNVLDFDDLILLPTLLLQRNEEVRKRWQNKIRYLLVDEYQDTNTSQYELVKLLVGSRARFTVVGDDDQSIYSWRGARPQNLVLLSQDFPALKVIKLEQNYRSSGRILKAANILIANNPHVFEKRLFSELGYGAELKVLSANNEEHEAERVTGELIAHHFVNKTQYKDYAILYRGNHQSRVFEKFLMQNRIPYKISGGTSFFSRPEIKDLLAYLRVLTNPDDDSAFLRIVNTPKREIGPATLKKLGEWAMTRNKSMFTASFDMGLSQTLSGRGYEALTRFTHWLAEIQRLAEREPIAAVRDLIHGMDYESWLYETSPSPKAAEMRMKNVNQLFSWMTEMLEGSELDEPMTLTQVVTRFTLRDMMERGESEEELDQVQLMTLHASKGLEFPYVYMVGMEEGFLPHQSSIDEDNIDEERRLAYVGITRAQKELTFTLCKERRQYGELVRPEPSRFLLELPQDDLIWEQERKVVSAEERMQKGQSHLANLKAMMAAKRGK

In publication PMC10638427:

Experiments:
Assay in all cases: affinity purification with mass spectrometry; SPA-tagged bait from E. coli MG1655 lysate (nuclease-treated, 0.1% Triton X-100, 100 mM NaCl, pH 7.9, 4 °C); anti-FLAG Sepharose, TEV cleavage, then calmodulin Sepharose; on-bead trypsin digestion and LC-MS/MS; cultures grown as LB log, LB ON and M9 0.2% acetate; three biological replicates; two controls (untagged MG1655 and mVenus-SPA)
HolD-SPA (E. coli) = HolD-SPA (E. coli) (UniProt P28632)
DnaB-SPA (E. coli) = DnaB-SPA (E. coli) (UniProt P0ACB0)
DiaA-SPA (E. coli) = target: T1, DiaA-SPA (E. coli) (UniProt P66817)
T1 sequence: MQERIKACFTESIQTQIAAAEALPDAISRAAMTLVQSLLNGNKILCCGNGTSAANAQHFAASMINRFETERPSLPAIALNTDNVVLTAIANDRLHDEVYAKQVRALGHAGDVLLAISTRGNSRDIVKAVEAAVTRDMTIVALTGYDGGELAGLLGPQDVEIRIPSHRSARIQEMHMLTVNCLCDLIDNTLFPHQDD

Q: Which binding (HolD-SPA (E. coli)) does the source give for Ssb (from UniProt P0AGE0 1-178) here?
A: The binding was “binds”.

Q: How did the binding (DnaB-SPA (E. coli)) turn out when Rep (from UniProt P09980 1-673) was run?
A: The binding was “binds”.

B1: DnaC (protein, UniProt P0AEF0 1-245)
chain: MKNVGDLMQRLQKMMPAHIKPAFKTGEELLAWQKEQGAIRSAALERENRAMKMQRTFNRSGIRPLHQNCSFENYRVECEGQMNALSKARQYVEEFDGNIASFIFSGKPGTGKNHLAAAICNELLLRGKSVLIITVADIMSAMKDTFRNSGTSEEQLLNDLSNVDLLVIDEIGVQTESKYEKVIINQIVDRRSSSKRPTGMLTNSNMEEMTKLLGERVMDRMRLGNSLWVIFNWDSYRSRVTGKEY
Q: How did the binding (DnaB-SPA (E. coli)) turn out when B1 was run?
A: The binding was “binds”.

B2: DnaA (protein, UniProt P03004 1-467)
chain: MSLSLWQQCLARLQDELPATEFSMWIRPLQAELSDNTLALYAPNRFVLDWVRDKYLNNINGLLTSFCGADAPQLRFEVGTKPVTQTPQAAVTSNVAAPAQVAQTQPQRAAPSTRSGWDNVPAPAEPTYRSNVNVKHTFDNFVEGKSNQLARAAARQVADNPGGAYNPLFLYGGTGLGKTHLLHAVGNGIMARKPNAKVVYMHSERFVQDMVKALQNNAIEEFKRYYRSVDALLIDDIQFFANKERSQEEFFHTFNALLEGNQQIILTSDRYPKEINGVEDRLKSRFGWGLTVAIEPPELETRVAILMKKADENDIRLPGEVAFFIAKRLRSNVRELEGALNRVIANANFTGRAITIDFVREALRDLLALQEKLVTIDNIQKTVAEYYKIKVADLLSKRRSRSVARPRQMAMALAKELTNHSLPEIGDAFGGRDHTTVLHACRKIEQLREESHDIKEDFSNLIRTLSS
Q: For B2, which binding (DiaA-SPA (E. coli)) is on record?
A: The binding was “binds”.

B3: topoisomerase III (protein, UniProt P14294 1-653)
chain: MRLFIAEKPSLARAIADVLPKPHRKGDGFIECGNGQVVTWCIGHLLEQAQPDAYDSRYARWNLADLPIVPEKWQLQPRPSVTKQLNVIKRFLHEASEIVHAGDPDREGQLLVDEVLDYLQLAPEKRQQVQRCLINDLNPQAVERAIDRLRSNSEFVPLCVSALARARADWLYGINMTRAYTILGRNAGYQGVLSVGRVQTPVLGLVVRRDEEIENFVAKDFFEVKAHIVTPADERFTAIWQPSEACEPYQDEEGRLLHRPLAEHVVNRISGQPAIVTSYNDKRESESAPLPFSLSALQIEAAKRFGLSAQNVLDICQKLYETHKLITYPRSDCRYLPEEHFAGRHAVMNAISVHAPDLLPQPVVDPDIRNRCWDDKKVDAHHAIIPTARSSAINLTENEAKVYNLIARQYLMQFCPDAVFRKCVIELDIAKGKFVAKARFLAEAGWRTLLGSKERDEENDGTPLPVVAKGDELLCEKGEVVERQTQPPRHFTDATLLSAMTGIARFVQDKDLKKILRATDGLGTEATRAGIIELLFKRGFLTKKGRYIHSTDAGKALFHSLPEMATRPDMTAHWESVLTQISEKQCRYQDFMQPLVGTLYQLIDQAKRTPVRQFRGIVAPGSGGSADKKKAAPRKRSAKKSPPADEVGSGAIA
Q: Which binding (HolD-SPA (E. coli)) does the source give for B3 here?
A: Its binding is “binds”.

These are yes or no findings as the source states them, for the method shown. In cells and extracts the contact can be indirect. A yes stands for co-enrichment or nearness to the bait. Other partners may have been found.
